Experimental data from paper PMC11130243.
Changes are numbered by the printed parent chain. Results are given in words; binding and its absence hold for the method and conditions named. Binding seen in cells or lysates may run through a third protein. Some entries that bind do so weakly or less than the wild type. For part of these data: Where a sequence is shown, tags or fusion partners need not be part of it.

Amino acid sequences for entries named in this document (tags omitted).
UniProt P23458: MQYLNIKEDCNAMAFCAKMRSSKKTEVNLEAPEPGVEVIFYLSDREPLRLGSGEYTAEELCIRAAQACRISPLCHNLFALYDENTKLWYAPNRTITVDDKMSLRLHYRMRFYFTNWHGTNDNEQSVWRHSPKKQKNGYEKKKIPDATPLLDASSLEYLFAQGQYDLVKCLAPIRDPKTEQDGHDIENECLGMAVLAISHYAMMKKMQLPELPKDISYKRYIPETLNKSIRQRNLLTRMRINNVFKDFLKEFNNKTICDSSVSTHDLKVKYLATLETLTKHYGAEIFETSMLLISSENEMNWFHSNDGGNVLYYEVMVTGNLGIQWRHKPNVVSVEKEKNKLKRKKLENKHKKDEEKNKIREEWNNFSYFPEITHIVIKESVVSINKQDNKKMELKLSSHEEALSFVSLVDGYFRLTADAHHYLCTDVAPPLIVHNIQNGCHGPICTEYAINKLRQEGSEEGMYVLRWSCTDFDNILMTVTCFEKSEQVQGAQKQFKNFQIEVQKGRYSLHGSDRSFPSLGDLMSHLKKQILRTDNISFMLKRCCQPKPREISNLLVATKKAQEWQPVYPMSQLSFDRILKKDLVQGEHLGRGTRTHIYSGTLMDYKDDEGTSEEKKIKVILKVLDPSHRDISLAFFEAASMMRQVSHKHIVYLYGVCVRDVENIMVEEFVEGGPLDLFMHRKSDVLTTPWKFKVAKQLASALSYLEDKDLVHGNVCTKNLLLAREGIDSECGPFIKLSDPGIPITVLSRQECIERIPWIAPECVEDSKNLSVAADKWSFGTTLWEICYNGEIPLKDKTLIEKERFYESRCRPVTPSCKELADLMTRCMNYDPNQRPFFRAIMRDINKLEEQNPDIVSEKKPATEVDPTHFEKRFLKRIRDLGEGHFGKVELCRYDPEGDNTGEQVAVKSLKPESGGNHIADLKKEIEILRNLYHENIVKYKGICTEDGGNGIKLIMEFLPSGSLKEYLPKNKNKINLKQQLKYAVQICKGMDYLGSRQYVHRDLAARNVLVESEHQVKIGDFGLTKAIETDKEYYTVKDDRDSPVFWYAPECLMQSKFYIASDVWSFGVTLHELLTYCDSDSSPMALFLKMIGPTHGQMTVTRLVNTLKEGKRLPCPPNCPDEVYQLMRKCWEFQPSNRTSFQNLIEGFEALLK

What was measured:
Flag-PJA2 (human) = biological target: T1, Flag-PJA2 (human) (UniProt O43164); assay: co-IP; HEK293T transfected with Flag-PJA2 variants (control Flag-mCherry); standard co-IP lysis buffer (50 mM Tris HCl pH 7.5, 150 mM NaCl, 1 mM EDTA, 1% Triton X-100); anti-Flag IP, Protein G Dynabeads; TYK2 or JAK1 immunoblotted
T1 sequence: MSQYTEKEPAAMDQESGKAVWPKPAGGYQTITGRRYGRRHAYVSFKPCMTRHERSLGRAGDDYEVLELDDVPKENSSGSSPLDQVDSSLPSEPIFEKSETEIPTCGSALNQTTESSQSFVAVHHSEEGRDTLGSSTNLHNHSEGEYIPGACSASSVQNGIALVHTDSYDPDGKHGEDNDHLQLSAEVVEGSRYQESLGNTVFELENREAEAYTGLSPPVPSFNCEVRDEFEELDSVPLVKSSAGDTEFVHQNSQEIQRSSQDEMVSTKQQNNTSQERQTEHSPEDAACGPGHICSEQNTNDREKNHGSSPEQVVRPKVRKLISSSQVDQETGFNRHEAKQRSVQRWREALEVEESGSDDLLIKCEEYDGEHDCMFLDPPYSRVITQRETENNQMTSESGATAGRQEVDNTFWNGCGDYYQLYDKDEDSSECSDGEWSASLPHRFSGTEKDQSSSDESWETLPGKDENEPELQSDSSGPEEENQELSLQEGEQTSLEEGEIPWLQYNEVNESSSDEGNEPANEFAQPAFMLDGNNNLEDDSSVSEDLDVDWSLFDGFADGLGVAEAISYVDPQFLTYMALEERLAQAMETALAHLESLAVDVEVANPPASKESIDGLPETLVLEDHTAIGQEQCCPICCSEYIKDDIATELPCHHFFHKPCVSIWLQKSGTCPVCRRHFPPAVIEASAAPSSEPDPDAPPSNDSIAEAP

Flag-PJA2-rm (human) = biological target: T2, Flag-PJA2-rm (human) (UniProt O43164); assay: as above
T2 sequence: T1 sequence with C634A, C671A

V5-TYK2 (human) = V5-TYK2 (human) (UniProt P29597); assay: co-IP; HEK293T transfected with V5-TYK2 constructs (controls GST-V5 or V5-GFP; with NTC or PJA2 siRNA in Fig. 6f); standard co-IP lysis buffer (50 mM Tris HCl pH 7.5, 150 mM NaCl, 1 mM EDTA, 1% Triton X-100); anti-V5 IP, Protein G Dynabeads; endogenous PJA2 immunoblotted
V5-TYK2(1-588) (human) = biological target: T3, V5-TYK2(1-588) (human) (UniProt P29597); assay: as above
T3 sequence: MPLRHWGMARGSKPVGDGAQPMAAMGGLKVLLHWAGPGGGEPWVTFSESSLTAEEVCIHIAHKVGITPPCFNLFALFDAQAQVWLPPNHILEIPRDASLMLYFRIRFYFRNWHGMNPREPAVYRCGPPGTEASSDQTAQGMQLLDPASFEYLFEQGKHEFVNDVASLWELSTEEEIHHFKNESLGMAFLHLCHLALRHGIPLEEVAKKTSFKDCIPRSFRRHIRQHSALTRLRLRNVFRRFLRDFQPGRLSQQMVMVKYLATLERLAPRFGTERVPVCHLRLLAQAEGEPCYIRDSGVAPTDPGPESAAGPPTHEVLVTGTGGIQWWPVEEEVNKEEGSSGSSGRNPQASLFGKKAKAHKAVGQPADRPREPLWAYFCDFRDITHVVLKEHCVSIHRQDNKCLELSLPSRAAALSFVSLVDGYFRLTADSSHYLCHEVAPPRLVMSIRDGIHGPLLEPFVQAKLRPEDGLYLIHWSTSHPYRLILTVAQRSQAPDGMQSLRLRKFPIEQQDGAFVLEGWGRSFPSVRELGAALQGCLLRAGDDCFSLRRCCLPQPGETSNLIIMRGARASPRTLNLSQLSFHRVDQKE

[1] = biological target: TurboID-V5-TYK2 (transfected in HEK293T) (human) (UniProt P29597); assay: co-IP; HEK293T co-transfected with Flag-PJA2 and each TurboID-V5-tagged type I IFN signaling component; cell lysates, IP, immunoblotting
[2] = biological target: TurboID-V5-JAK1 (transfected in HEK293T) (human) (UniProt P23458); assay: as above

TYK2 (endogenous, HEK293T) (from UniProt P29597 1-1187) (enzyme)
binding (Flag-PJA2 (human)): binds | binding (Flag-PJA2-rm (human)): binds

B1: PJA2 (endogenous, HEK293T) (enzyme, UniProt O43164 1-708)
chain: T1 sequence
binding (V5-TYK2 (human)): binds | binding (V5-TYK2(1-588) (human)): binds

B2: Flag-PJA2 (enzyme, UniProt O43164-1 1-708)
chain: T1 sequence
binding [1]: binds | binding [2]: binds
